Assay results: paper PMC8420766, “Crystal structure of a MarR family protein from the psychrophilic bacterium Paenisporosarcina sp. TG-14 in complex with a lipid-like molecule” (IUCrJ, 2021)
The exact form of at least one protein or probe is not confirmed. Weaker means in comparison with the reference protein, sequence or condition of that experiment. Where a protein sequence is shown, tags need not be part of it.

Target: T1, PaMarR (Paenisporosarcina sp. TG-14) (UniProt A0A8J9SKQ8)
T1 sequence (looked up, limits assumed): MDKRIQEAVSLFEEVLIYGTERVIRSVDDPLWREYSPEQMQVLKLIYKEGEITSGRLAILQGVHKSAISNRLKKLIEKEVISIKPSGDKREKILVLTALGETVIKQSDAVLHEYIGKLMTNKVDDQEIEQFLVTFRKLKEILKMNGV
Test: EMSA
Details: randomization significantly disrupted binding, protein contains palmitate; EMSA: Dulbecco's PBS, 12% (v/v) glycerol, 0.5 uM duplex, 15 min at 37 C, 20 ul; 8% native PAGE with 5% glycerol in Tris-borate; pH not stated; recombinant protein; label: none (GelRed stain)

TGTCACTAATGCACTCCATAGACGACCATCAGTAGTCTAGTAGATTAGATAGTCTACCCCCTAG / ACTATCTAATCTACTAGACTACTGATGGTCGTCTATGGAGTGCATTAGTGACA [Non-specific palindrome probe (randomized)]
binding result: binds more weakly
